Patent US8741947B2, “Biologically active macrolides, compositions, and uses thereof” (The United States of America, as represented by the …, priority 2000, dated 2014)

System: Chromaffin Granule Membrane V-ATPase
Assay: V-ATPase inhibitory assay, chromaffin granule membrane
Assay type: biochemical, bovine
Settings: ratio of Ki CGM to Ki NCVM
Procedure: The V-ATPase inhibitory assays were performed on representative compound(s) of the present invention using non-mammalian or mammalian (e.g., bovine cromaffin granule) V-ATPases as described by Bowman et al., Proc. Natl. Acad. Sci. USA, 85, 7972-7976, 1988.

| Structure (SMILES) | Ratio GCM/NC |
| --- | --- |
| CO/C1=C\C(C)=C\[C@@H](C)[C@@H](O)[C@@H](C)C/C(C)=C/C=C/[C@H](OC)[C@@H]([C@@H](C)[C@@H](O)[C@H](C)[C@@]2(O)C[C@@H](O)[C@H](C)[C@@H](C(C)C)O2)OC1=O [Bafilomycin A1, bafilomycin A1, reference compound] | 0.5 |
| COC(=O)C(C)(C)C(O)C(C)C(=O)C(C)(C)C=CC(=O)NC(CC(C)C)C(O)C(C)C=C(C)C(O)C(C)CCC(O)C(C)C(=O)NC(C(C)O)C1OC(=O)C(C(O)C(=O)O)NC(=O)C=CC=CCCC=CC=CCC2CC(C)CC(CC(O)C(C)C(O)C(C)=CC(C)C(O)C(C)=CCC(OC(=O)CC(O)C(=O)O)C1C)O2 (stereo not drawn) [Chondropsin A, 73-deoxy, 73-deoxychondropsin A] | 30 |
| COC(=O)C(C)(C)C(O)C(C)C(=O)C(C)(C)C=CC(=O)NC(C(O)C(C)C)C(O)C(C)C=C(C)C(O)C(C)CCC(O)C(C)C(=O)NC(C(C)O)C1OC(=O)C(C(O)C(=O)O)NC(=O)C=CC=CCCC=CC=CCC2CC(C)CC(CC(O)C(C)C(O)C(C)=CC(C)C(O)C(C)=CCC(OC(=O)CC(O)C(=O)O)C1C)O2 (stereo not drawn) [Chondropsin A, chondropsin A] | >13 |
| COC(=O)C(O)CC(=O)OC1CC=C(C)C(O)C(C)C=C(C)C(O)C(C)C(O)CC2CC(C)CC(CC=CC=CCCC=CC=CC(=O)NC(C(O)C(=O)OC)C(=O)OC(C(NC(=O)C(C)C(O)CCC(C)C(O)C(C)=CC(C)C(O)C(NC(=O)C=CC(C)(C)C(=O)C(C)C(O)C(C)(C)C(=O)OC)C(O)C(C)C)C(C)O)C1C)O2 (stereo not drawn) [Chondropsin A, dimethyl ester, chondropsin A dimethyl ester] | 10 |
| COC(=O)C(C)(C)C(O)C(C)C(=O)C(C)(C)C=CC(=O)NC(C(O)C(C)C)C(O)C(C)C=C(C)C(O)C(C)CCC(O)C(C)C(=O)NC(C(C)O)C1OC(=O)C(C(O)C(=O)O)NC(=O)C=CC=CCCC=CC=CCC2CC(C)CC(CC(O)C(C)C(O)C(C)=CC(C)C(O)C(C)=CCC(O)C1C)O2 (stereo not drawn) [Chondropsin B, chondropsin B] | 30 |
| CC1=CCC(OC(=O)CC(O)C(=O)O)C(C)C(C(NC(=O)C(C)C(O)CCC(C)C(O)C(C)=CC(C)C(O)C(CC(C)C)NC(=O)C=CC(C)(C)C(=O)C(C)C(O)C(C)C)C(C)O)OC(=O)C(C(O)C(=O)O)NC(=O)C=CC=CCCC=CC=CCC2CC(C)CC(CC(O)C(C)C(O)C(C)=CC(C)C1O)O2 (stereo not drawn) [Chondropsin C, chondropsin C] | 38 |
| COC(=O)C(C)(C)C(O)C(C)C(=O)C(C)(C)C=CC(=O)NC(C(O)C(C)C)C(O)C(C)C=C(C)C(O)C(C)CCC(O)C(C)C(=O)NC1C(C)OC(=O)C(C(O)C(=O)O)NC(=O)C=CC=CCCC=CC=CCC2CC(C)CC(CC(O)C(C)C(O)C(C)=CC(C)C(O)C(C)=CCC(OC(=O)CC(O)C(=O)O)C(C)C1O)O2 (stereo not drawn) [Chondropsin D, chondropsin D] | >71 |
| C/C=C/[C@H]1O[C@@](O)([C@@H](C)[C@H](O)[C@H](C)[C@H]2OC(=O)/C(OC)=C/C(C)=C/[C@@H](C)[C@@H](O)[C@@H](CC)[C@@H](O)[C@H](C)C/C(C)=C/C=C/[C@@H]2OC)C[C@@H](O[C@H]2C[C@@H](O)[C@H](OC(N)=O)[C@@H](C)O2)[C@@H]1C [Concanamycin A, concanamycin A, reference compound] | 1.5 |
| CC/C=C\C=C/C(=O)N/C=C/C[C@H]1C[C@@H](O)[C@@H](C)C/C=C/Cc2cccc(O)c2C(=O)O1 [Salicylihalamide A, salicylihalamide A, reference compound] | <0.0007 |
